# Measurements taken from the supplement of paper PMC10032668.
# Protein sequences, listed by entry. Tags and fused reporters are not part of them.
# EIF4G3, O43432, UniProt O43432, whole entry: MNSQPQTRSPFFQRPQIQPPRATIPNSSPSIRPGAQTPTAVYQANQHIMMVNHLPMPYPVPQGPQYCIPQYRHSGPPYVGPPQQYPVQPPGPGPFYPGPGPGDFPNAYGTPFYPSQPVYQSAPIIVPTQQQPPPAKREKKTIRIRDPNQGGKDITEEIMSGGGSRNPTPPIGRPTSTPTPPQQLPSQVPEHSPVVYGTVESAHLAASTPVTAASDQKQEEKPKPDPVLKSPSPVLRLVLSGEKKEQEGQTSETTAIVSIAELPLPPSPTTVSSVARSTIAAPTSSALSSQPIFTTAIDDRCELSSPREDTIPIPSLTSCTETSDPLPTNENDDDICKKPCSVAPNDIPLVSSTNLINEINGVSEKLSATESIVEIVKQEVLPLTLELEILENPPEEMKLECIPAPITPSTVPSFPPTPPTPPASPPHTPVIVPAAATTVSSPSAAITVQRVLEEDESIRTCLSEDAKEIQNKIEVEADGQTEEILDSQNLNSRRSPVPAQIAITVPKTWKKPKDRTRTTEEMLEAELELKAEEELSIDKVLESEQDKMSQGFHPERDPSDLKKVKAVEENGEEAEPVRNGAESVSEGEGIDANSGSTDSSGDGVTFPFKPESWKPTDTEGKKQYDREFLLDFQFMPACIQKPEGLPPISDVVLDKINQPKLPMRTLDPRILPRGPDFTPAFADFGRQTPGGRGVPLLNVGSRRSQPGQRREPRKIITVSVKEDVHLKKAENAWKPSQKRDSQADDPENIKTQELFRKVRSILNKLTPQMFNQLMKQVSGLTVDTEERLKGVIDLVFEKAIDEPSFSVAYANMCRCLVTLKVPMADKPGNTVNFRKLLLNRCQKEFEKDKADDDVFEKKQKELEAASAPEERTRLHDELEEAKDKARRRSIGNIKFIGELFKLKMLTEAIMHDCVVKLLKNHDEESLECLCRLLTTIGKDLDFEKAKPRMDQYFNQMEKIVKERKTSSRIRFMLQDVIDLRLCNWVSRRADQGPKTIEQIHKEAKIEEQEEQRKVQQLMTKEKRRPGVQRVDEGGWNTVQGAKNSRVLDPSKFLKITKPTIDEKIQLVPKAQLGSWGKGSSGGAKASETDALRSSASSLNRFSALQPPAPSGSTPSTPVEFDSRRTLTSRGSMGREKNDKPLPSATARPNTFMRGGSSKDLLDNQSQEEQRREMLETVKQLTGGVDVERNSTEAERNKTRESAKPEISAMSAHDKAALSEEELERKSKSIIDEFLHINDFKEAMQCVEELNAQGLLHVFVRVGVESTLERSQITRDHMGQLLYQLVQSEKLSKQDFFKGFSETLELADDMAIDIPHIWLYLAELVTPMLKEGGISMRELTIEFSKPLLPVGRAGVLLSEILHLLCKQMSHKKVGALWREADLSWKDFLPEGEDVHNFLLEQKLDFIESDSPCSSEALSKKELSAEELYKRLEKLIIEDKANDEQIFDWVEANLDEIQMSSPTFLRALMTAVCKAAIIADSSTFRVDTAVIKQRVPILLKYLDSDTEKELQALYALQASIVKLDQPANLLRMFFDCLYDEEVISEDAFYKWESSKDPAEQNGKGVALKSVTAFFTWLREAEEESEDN
# NELFE, P18615, UniProt P18615, whole entry: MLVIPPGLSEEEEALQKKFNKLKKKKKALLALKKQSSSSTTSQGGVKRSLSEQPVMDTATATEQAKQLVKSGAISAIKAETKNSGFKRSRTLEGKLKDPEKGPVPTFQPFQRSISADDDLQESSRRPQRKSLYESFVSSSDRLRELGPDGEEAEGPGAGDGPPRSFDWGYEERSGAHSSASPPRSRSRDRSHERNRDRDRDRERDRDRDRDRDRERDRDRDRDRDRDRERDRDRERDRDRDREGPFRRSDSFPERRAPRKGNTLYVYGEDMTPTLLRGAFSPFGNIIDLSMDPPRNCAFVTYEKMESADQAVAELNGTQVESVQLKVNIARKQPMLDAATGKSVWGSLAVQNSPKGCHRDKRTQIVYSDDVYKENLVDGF
# PFN2, P35080, UniProt P35080, whole entry: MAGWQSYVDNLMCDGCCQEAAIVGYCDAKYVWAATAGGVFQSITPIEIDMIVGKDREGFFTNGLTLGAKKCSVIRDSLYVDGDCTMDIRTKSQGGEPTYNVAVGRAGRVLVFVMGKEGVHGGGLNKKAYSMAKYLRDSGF
# This is one part of the list. Only hits are listed; about a third recur on repeated control peptides.
# Columns and labels:
# Assay in all cases: PRISMA enrichment of interactor (LFQ) in peptide spot vs all other peptide spots (log2 fold change); higher = stronger / more specific binding of the interactor to the peptide
# [1] = target: ABCD3, P28288
# Procedure: (§1)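 PRISMA: 15-aa overlapping tiles (offset 8 aa) of 60 microproteins, plus SOS1/GLUT1 control peptides, were spot-synthesized on cellulose membranes in triplicate. Membranes were incubated with benzonase-treated HEK293T lysate, and bound proteins were identified by LC-MS/MS with LFQ. Enrichment is the log2 fold change of each protein in one spot versus all other spots. Only interactors passing the significance cutoff are listed.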
# [2] = target: AP1B1, Q10567
# Procedure: as §1
# [3] = target: CCZ1, P86791
# Procedure: as §1
# [4] = target: DDX49, Q9Y6V7
# Procedure: as §1
# [5] = target: DVL2, O14641
# Procedure: as §1
# [6] = target: EEF1D, P29692
# Procedure: as §1
# [7] = target: EIF4G3, O43432
# Procedure: as §1
# [8] = target: FANCD2, Q9BXW9
# Procedure: as §1
# [9] = target: FASTKD5, Q7L8L6
# Procedure: as §1
# [10] = target: GNL2, Q13823
# Procedure: as §1
# [11] = target: GPC4, O75487
# Procedure: as §1
# [12] = target: HDLBP, Q00341
# Procedure: as §1
# [13] = target: IDH3B, O43837
# Procedure: as §1
# [14] = target: KIF5B, P33176
# Procedure: as §1
# [15] = target: LARP7, Q4G0J3
# Procedure: as §1
# [16] = target: MAP7, Q14244
# Procedure: as §1
# [17] = target: MCM6, Q14566
# Procedure: as §1
# [18] = target: METTL15, A6NJ78
# Procedure: as §1
# [19] = target: MRPL22, Q9NWU5
# Procedure: as §1
# [20] = target: NELFE, P18615
# Procedure: as §1
# [21] = target: NKRF, O15226
# Procedure: as §1
# [22] = target: NMD3, Q96D46
# Procedure: as §1
# [23] = target: NUMA1, Q14980
# Procedure: as §1
# [24] = target: ORMDL1, Q9P0S3
# Procedure: as §1
# [25] = target: PFN2, P35080
# Procedure: as §1
# [26] = target: PHIP, Q8WWQ0
# Procedure: as §1
# [27] = target: PNISR, Q8TF01
# Procedure: as §1
# [28] = target: RIOK1, Q9BRS2
# Procedure: as §1
# [29] = target: SAE1, Q9UBE0
# Procedure: as §1
# [30] = target: SEMG1, P04279
# Procedure: as §1
binder,measurement,setting,value
CGTRHPSTSTSAPNT [THAP7],PRISMA enrichment of interactor (log2),[1],4.65
same,PRISMA enrichment of interactor (log2),[2],4.96
same,PRISMA enrichment of interactor (log2),[3],7.93
same,PRISMA enrichment of interactor (log2),[4],5.43
same,PRISMA enrichment of interactor (log2),[5],4.25
same,PRISMA enrichment of interactor (log2),[6],4.69
same,PRISMA enrichment of interactor (log2),[7],5.39
same,PRISMA enrichment of interactor (log2),[8],4.89
same,PRISMA enrichment of interactor (log2),[9],4.82
same,PRISMA enrichment of interactor (log2),[10],5.79
same,PRISMA enrichment of interactor (log2),[11],4.91
same,PRISMA enrichment of interactor (log2),[12],4.66
same,PRISMA enrichment of interactor (log2),[13],6.69
same,PRISMA enrichment of interactor (log2),[14],6.3
same,PRISMA enrichment of interactor (log2),[15],4.57
same,PRISMA enrichment of interactor (log2),[16],5.42
same,PRISMA enrichment of interactor (log2),[17],4.85
same,PRISMA enrichment of interactor (log2),[18],4.74
same,PRISMA enrichment of interactor (log2),[19],6.94
same,PRISMA enrichment of interactor (log2),[20],4.17
same,PRISMA enrichment of interactor (log2),[21],4.61
same,PRISMA enrichment of interactor (log2),[22],7.38
same,PRISMA enrichment of interactor (log2),[23],5.52
same,PRISMA enrichment of interactor (log2),[24],5.95
same,PRISMA enrichment of interactor (log2),[25],4.38
same,PRISMA enrichment of interactor (log2),[26],4.22
same,PRISMA enrichment of interactor (log2),[27],5.04
same,PRISMA enrichment of interactor (log2),[28],4.54
same,PRISMA enrichment of interactor (log2),[29],4.32
same,PRISMA enrichment of interactor (log2),[30],6.97

# Random excerpt: 2 records from the list, in no set order.
binder,measurement,setting,value
CGTRHPSTSTSAPNT [THAP7],PRISMA enrichment of interactor (log2),[15],4.57
same,PRISMA enrichment of interactor (log2),[8],4.89
